Reference: patent publication US8057800B2, “Immunointeractive molecules and uses thereof” (Circassia Limited, priority 2004, dated 2011)
Some entries share one result that the patent states for a list of compounds.

Test system: peanut specific TCL generated using CPE
Experiment: CPE driven peanut specific TCL proliferation assay (3H-thymidine)
Assay type: cell-based, human
Details: peptide responsive CPE driven TCL
Experimental: FIG. 4 is a graphical representation of peanut allergic donor peanut specific TCL proliferative responses to Ara h 2 peptides, Ara h 2 and crude peanut extract. Peanut specific TCL (5×10^4 cells/ml) from individuals with peanut allergy generated using CPE were stimulated with Ara h 2 peptides at a concentration of 10 μg/ml in the presence of autologous irradiated PBMC as APC (5×10^4 cells/ml) in 3 day cultures.
Freshly harvested or frozen stored PBMC were cultured in 24-well plates (Greiner Biotechnik, Germany) at 2.5×10^6 cells per well (2 ml volume) in complete medium with antigen at an optimised concentration for 7 days at 37° C. in a 5% CO2 humidified incubator. In the case of frozen PBMC the cells were first washed once in wash medium, 1 in 10 dilution of PBMC to medium, and pelleted at 329×g for 10 minutes to remove DMSO. […]
5.0×10^4/well TCL cells were cultured in triplicate in 96-well U bottom plates (Linbro ICN Biomedicals, USA) with antigen or medium alone and rIL-2 as negative and positive controls respectively, in the presence of autologous irradiated (3000 rads) PBMC (5.0×10^4/well). […] In the last 16 hours of culture, wells were pulsed with ^3H-thymidine (1 μCi/well), then harvested onto printed glass fibre filters with a 96-well automatic cell harvester. ^3H-thymidine incorporation was measured by liquid scintillation spectroscopy. […]

Sequence | frequency of response among CPE driven TCL that demonstrated a peptide response
PYDRRGAGSSQHQERCCNEL (Peanut Ara h 2) [Ara h 2 (73-92), Ara h 2 20-mer peptide, residues 73-92] | over 25%
RQQWELQGDRRCQSQLERAN (Peanut Ara h 2) [Ara h 2 (19-38), Ara h 2 20-mer peptide, residues 19-38] | over 25%
